Measured values as given in the supplement of paper PMC12578635.
The other results are listed elsewhere or left out. Cut-off read from the data, not from the text of the source: active = 150% or more and inactive = the rest. Many values rest on one well or one pass, so single values are uncertain.

The molecules below were run on Staphylococcus aureus JE2-lux inside RAW 264.7 macrophages (assay: intracellular bacterial bioluminescence relative to DMSO vehicle; higher = higher intracellular bacterial metabolic activity). Conditions: 10 µM; treatment time 4 h; gentamicin 50 µg/ml.

Intracellular bacterial bioluminescence, inactive:
COc1ccccc1NC(=O)CSc1ncnc2c1oc1ccccc12 60.4%
O=c1ccn(-c2nc(-c3ccccc3)sc2-c2ccccc2)c(=O)[nH]1 90.7%
COc1ccc(-c2noc(N3CCC(C(=O)N(C)c4ccc(F)cc4)CC3)n2)cc1 114%
O=C(CSc1nc(-c2ccc(F)cc2)nc2c1Cc1ccccc1O2)Nc1ccc(C(=O)O)cc1 92.7%
COc1ccc(-c2nn(-c3ccccc3)cc2CNC(=O)/C=C/C(=O)O)cc1 92.6%
Cc1ccc(NC(=O)CSc2nnc(-c3cccnc3)n2N)cc1Cl 136%
O=C(NNc1nc2ccc(F)cc2s1)c1ccc(S(=O)(=O)N2CCc3ccccc3C2)cc1 50.5%
COc1ccc(NC(=O)CSc2nnc3[nH]c(=O)ccn23)c(OC)c1 98.5%
Cc1ccc(-c2nnc3ccccc3c2C(=O)Nc2ccccc2Cl)cc1 80.4%
CCCc1n[nH]c2c1C(C1CC=CCC1)C(C#N)=C(N)O2 (stereo unspecified) 85.5%
CCOC(=O)c1[nH]c2ccccc2c1NC(=O)c1cc(Cl)ccc1OC 91.4%
COc1ccccc1NC(=O)C1CCN(c2cnccn2)CC1 91.6%
Cc1ccc(OCC(O)Cn2c(NCCCO)nc3c2c(=O)n(C)c(=O)n3C)cc1C (stereo unspecified) 86.1%
O=C(Nc1ccccc1Cl)C1CCN(C(=O)Nc2ccccc2)CC1 86%
NC(=O)c1nc(-c2ccoc2)nc2c1[nH]c(=O)n2-c1ccc(Cl)cc1 92.8%
O=C(CSc1nccc2ccccc12)NC1CCCOC1 (stereo unspecified) 104%
Cc1ccc(-c2csc(-c3cccn3CC(=O)N3CCN(c4cccc(C)c4)C(C)C3)n2)cc1 (stereo unspecified) 77.3%
COCc1c(Br)c(C)nc(OCC(=O)N/N=C/c2ccccc2O)c1C#N 97.4%
COC(=O)c1c(NC(=O)CC2Sc3ccccc3NC2=O)sc2c1CCC(C(C)(C)C)C2 (stereo unspecified) 106%
COc1cccc(Nc2nc(N3CCOCC3)c3cnn(C)c3n2)c1 119%
CCc1ccccc1NC(=O)NC1CC(=O)N(c2cccc(OC)c2)C1 (stereo unspecified) 94%
CCC(C)NC(=O)c1cc2cc(OC)ccc2oc1=O (stereo unspecified) 96.6%
Cc1cccc(N2CCN(S(=O)(=O)c3cc(-c4ccno4)oc3C)CC2C)c1 (stereo unspecified) 101%
O=C(O)C(Cc1c[nH]cn1)N1C(=O)c2cccc([N+](=O)[O-])c2C1=O (stereo unspecified) 112%
O=C(c1ccccc1)N1N=C(c2ccc(O)cc2)CC1c1ccco1 (stereo unspecified) 80.4%
NC(=O)C1CCN(C(=O)Cc2cc(=O)[nH]c(=O)[nH]2)CC1 98.2%

2 compounds picked at random from the list so far, as already listed:
Intracellular bacterial bioluminescence, inactive:
Cc1ccc(-c2csc(-c3cccn3CC(=O)N3CCN(c4cccc(C)c4)C(C)C3)n2)cc1 (stereo unspecified) 77.3%
O=C(NNc1nc2ccc(F)cc2s1)c1ccc(S(=O)(=O)N2CCc3ccccc3C2)cc1 50.5%
